From article PMC12024213, “Mechanism Insight of Cell Death Signaling by Thymol Derivatives on Trypanosomatidae Protozoan Parasites” (Antibiotics, 2025)

System: T. cruzi epimastigotes
Assay: alamarBlue assay on T. cruzi epimastigotes
Type: cell-based, Trypanosoma cruzi
Settings: against T. cruzi epimastigotes
Method: In a 96-well plate, a serial dilution of the tested derivatives was performed in liver infusion tryptose medium supplemented with 10% heat inactivated fetal bovine serum. Later, 100 µL of 5 × 10^5 cells/mL of epimastigotes was added to each well. Afterwards, 20 µL of alamarBlue® was added to each well, and the plate was maintained at 26 °C for 72 h.
Cytotoxicity effect of the tested derivatives was conducted using macrophages of the murine cell line J774.A1 (American Type Culture Collection #TIB-67, city, country), as previously described. The cells were maintained in DMEM at 37 °C in a 5% CO2 humidified incubator. All the plates containing alamarBlue® were analyzed using a plate reader EnSpire Multimode Plate Reader® at excitation and emission wavelengths of 570 and 585 nm, respectively (PerkinElmer, ThermoFisher Scientific, Madrid, Spain). The IC50 (concentrations able to inhibit 50% of parasites), IC90 (concentrations able to inhibit 90% of parasites), and CC50 (concentration able to inhibit 50% of murine macrophages) values were determined for each compound by nonlinear regression using GraphPad software.

Question: Which “increase in potency compared to the parent compound (1)” value does the source give for Cc1ccc(C(C)C)c(OC(=O)c2ccccn2)c1 [Derivative 10, thymyl picolinate] here?
Answer: 5 fold

Question: With COc1ccc(C(=O)Oc2cc(C)ccc2C(C)C)cc1 [Derivative 9, thymyl anysoate] as the compound, how does the “increase in potency compared to the parent compound (1)” value read?
Answer: 7 fold
